Values of other authors as cited in patent publication US20050034189A1, “Chitin oligosaccharide elicitor- and gibberellin-responsive genes in plants, and uses thereof” (National Institute of Agrobiological Sciences, priority 2001, published 2005).

Test system: α-amylase
Conditions: cited from earlier work

CN[C@@H]1C[C@H]2O[C@@](C)([C@@H]1OC)n1c3ccccc3c3c4c(c5c6ccccc6n2c5c31)C(=O)NC4 [staurosporine]
inhibition of gibberellin induction of α-amylase: hardly inhibited
